Reference: paper PMC12167799, “The role of human Shu complex in ATP-dependent regulation of RAD51 filaments during homologous recombination–associated DNA damage response” (The Journal of Biological Chemistry, 2025)
The exact form of at least one protein or probe is not confirmed. Negatives hold for the conditions tested.

Tested on: SWSAP1 (hSWS1-SWSAP1, WT) + hSWS1
Test: fluorescence polarization
Details: FPA: 5 nM 6-FAM DNA, 37 C, recombinant protein, protein details: N-terminal 6xHis-TEV, cleaved,none, label: 3' 6-FAM on strand 1

Sequence: CTTGACAAGCTTGCGCACT / AGTGCGCAAGCTTGTCAAGGCACTTTTTTTTTTTTTTTT [3'-overhang]
- binding result (2 mM ADP): no binding
- binding result (2 mM ATP): no binding

Sequence: TTTTTTTTTTTTTTTTTTTTCTTGACAAGCTTGCGCACT (double strand) [ds39]
- binding result (2 mM ADP): no binding
- binding result (2 mM ATP): no binding
